Test results reported in the supplement of paper PMC7661543.
The effect of the compound repeats well; differences between the knockouts mostly do not.

Tested on: MDA-MB-231
Test: relative cell number vs DMSO control (72 h) (% of DMSO); higher = less growth inhibition (more cells)
Description: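 QMAP-Seq: a pool of 5 breast cancer cell lines (ZR-75-1, SKBR3, HCC-38, MDA-MB-231, BT-20), each carrying 12 doxycycline-inducible Cas9 sgRNA perturbations (11 knockouts plus non-targeting sgNT), was treated with compounds for 72 h at four 10-fold doses (10 nM-10 uM or 1 nM-1 uM range). Barcodes were amplified and sequenced, and cell number was interpolated from 293T spike-in standard curves. The result is expressed as % of the median of DMSO wells. Two biological replicates.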

CCNC(=O)c1noc(-c2cc(C(C)C)c(O)cc2O)c1-c1ccc(CN2CCOCC2)cc1 [NVPAUY922]
Conditions | relative cell number
sgRNA knockout: sgATF3, 1 nM | 92.1
sgRNA knockout: sgATF3, 10 nM | 63.4
sgRNA knockout: sgATF3, 100 nM | 13.9
sgRNA knockout: sgATF3, 1000 nM | 16.5
sgRNA knockout: sgATF4, 1 nM | 113
sgRNA knockout: sgATF4, 10 nM | 87
sgRNA knockout: sgATF4, 100 nM | 28.2
sgRNA knockout: sgATF4, 1000 nM | 19.24
sgRNA knockout: sgATF6, 1 nM | 100
sgRNA knockout: sgATF6, 10 nM | 65.2
sgRNA knockout: sgATF6, 100 nM | 17.4
sgRNA knockout: sgATF6, 1000 nM | 16
sgRNA knockout: sgATG7, 1 nM | 94.3
sgRNA knockout: sgATG7, 10 nM | 63.6
sgRNA knockout: sgATG7, 100 nM | 15.6
sgRNA knockout: sgATG7, 1000 nM | 13
sgRNA knockout: sgERN1, 1 nM | 104
sgRNA knockout: sgERN1, 10 nM | 60.6
sgRNA knockout: sgERN1, 100 nM | 19.2
sgRNA knockout: sgERN1, 1000 nM | 15
sgRNA knockout: sgHSF1, 1 nM | 89.7
sgRNA knockout: sgHSF1, 10 nM | 46.6
sgRNA knockout: sgHSF1, 100 nM | 17.9
sgRNA knockout: sgHSF1, 1000 nM | 10.7
sgRNA knockout: sgHSF2, 1 nM | 101
sgRNA knockout: sgHSF2, 10 nM | 71.9
sgRNA knockout: sgHSF2, 100 nM | 17.1
sgRNA knockout: sgHSF2, 1000 nM | 8.61
sgRNA knockout: sgKEAP1, 1 nM | 112
sgRNA knockout: sgKEAP1, 10 nM | 76.2
sgRNA knockout: sgKEAP1, 100 nM | 17.7
sgRNA knockout: sgKEAP1, 1000 nM | 10.7
sgRNA knockout: sgNFE2L2, 1 nM | 119
sgRNA knockout: sgNFE2L2, 10 nM | 86.8
sgRNA knockout: sgNFE2L2, 100 nM | 14.4
sgRNA knockout: sgNFE2L2, 1000 nM | 13.8
sgRNA knockout: sgSLC35F2, 1 nM | 90.8
sgRNA knockout: sgSLC35F2, 10 nM | 80
sgRNA knockout: sgSLC35F2, 100 nM | 15.1
sgRNA knockout: sgSLC35F2, 1000 nM | 9.47
sgRNA knockout: sgXBP1, 1 nM | 104
sgRNA knockout: sgXBP1, 10 nM | 78.3
sgRNA knockout: sgXBP1, 100 nM | 14.9
sgRNA knockout: sgXBP1, 1000 nM | 12

CN1CCc2c(c3ccccc3n2Cc2ccc(C(=O)NO)cc2)C1 [TubastatinA]
Conditions | relative cell number
sgRNA knockout: sgATF3, 10 nM | 103
sgRNA knockout: sgATF3, 100 nM | 101
sgRNA knockout: sgATF3, 1000 nM | 94.5
sgRNA knockout: sgATF3, 10000 nM | 71.1
sgRNA knockout: sgATF4, 10 nM | 100
sgRNA knockout: sgATF4, 100 nM | 150
sgRNA knockout: sgATF4, 1000 nM | 98.7
sgRNA knockout: sgATF4, 10000 nM | 81.2
sgRNA knockout: sgATF6, 10 nM | 82.3
sgRNA knockout: sgATF6, 100 nM | 70.6
sgRNA knockout: sgATF6, 1000 nM | 128
sgRNA knockout: sgATF6, 10000 nM | 66.3
sgRNA knockout: sgATG7, 10 nM | 99
sgRNA knockout: sgATG7, 100 nM | 95.8
sgRNA knockout: sgATG7, 1000 nM | 105
sgRNA knockout: sgATG7, 10000 nM | 65.7
sgRNA knockout: sgERN1, 10 nM | 89.7
sgRNA knockout: sgERN1, 100 nM | 80.8
sgRNA knockout: sgERN1, 1000 nM | 90.3
sgRNA knockout: sgERN1, 10000 nM | 60
sgRNA knockout: sgHSF1, 10 nM | 93.6
sgRNA knockout: sgHSF1, 100 nM | 82
sgRNA knockout: sgHSF1, 1000 nM | 63.4
sgRNA knockout: sgHSF1, 10000 nM | 70.6
sgRNA knockout: sgHSF2, 10 nM | 104
sgRNA knockout: sgHSF2, 100 nM | 90.5
sgRNA knockout: sgHSF2, 1000 nM | 93.7
sgRNA knockout: sgHSF2, 10000 nM | 77.2
sgRNA knockout: sgKEAP1, 10 nM | 117
sgRNA knockout: sgKEAP1, 100 nM | 100
sgRNA knockout: sgKEAP1, 1000 nM | 95.19
sgRNA knockout: sgKEAP1, 10000 nM | 59.9
sgRNA knockout: sgNFE2L2, 10 nM | 90.5
sgRNA knockout: sgNFE2L2, 100 nM | 88.9
sgRNA knockout: sgNFE2L2, 1000 nM | 109
sgRNA knockout: sgNFE2L2, 10000 nM | 67
sgRNA knockout: sgSLC35F2, 10 nM | 86.3
sgRNA knockout: sgSLC35F2, 100 nM | 95.6
sgRNA knockout: sgSLC35F2, 1000 nM | 90.6
sgRNA knockout: sgSLC35F2, 10000 nM | 60
sgRNA knockout: sgXBP1, 10 nM | 108
sgRNA knockout: sgXBP1, 100 nM | 76.8
sgRNA knockout: sgXBP1, 1000 nM | 89.5
sgRNA knockout: sgXBP1, 10000 nM | 52.9

N.N.[Cl][Pt][Cl] [Cisplatin]
Conditions | relative cell number
sgRNA knockout: sgATF3, 10 nM | 97.6
sgRNA knockout: sgATF3, 100 nM | 81.5
sgRNA knockout: sgATF3, 1000 nM | 114
sgRNA knockout: sgATF3, 10000 nM | 111.9
sgRNA knockout: sgATF4, 10 nM | 118
sgRNA knockout: sgATF4, 100 nM | 67
sgRNA knockout: sgATF4, 1000 nM | 103
sgRNA knockout: sgATF4, 10000 nM | 138
sgRNA knockout: sgATF6, 10 nM | 118.9
sgRNA knockout: sgATF6, 100 nM | 86.1
sgRNA knockout: sgATF6, 1000 nM | 106
sgRNA knockout: sgATF6, 10000 nM | 87.4
sgRNA knockout: sgATG7, 10 nM | 106
sgRNA knockout: sgATG7, 100 nM | 89.5
sgRNA knockout: sgATG7, 1000 nM | 117
sgRNA knockout: sgATG7, 10000 nM | 84.4
sgRNA knockout: sgERN1, 10 nM | 105
sgRNA knockout: sgERN1, 100 nM | 86
sgRNA knockout: sgERN1, 1000 nM | 147
sgRNA knockout: sgERN1, 10000 nM | 94
sgRNA knockout: sgHSF1, 10 nM | 85.3
sgRNA knockout: sgHSF1, 100 nM | 79.7
sgRNA knockout: sgHSF1, 1000 nM | 113
sgRNA knockout: sgHSF1, 10000 nM | 85
sgRNA knockout: sgHSF2, 10 nM | 101
sgRNA knockout: sgHSF2, 100 nM | 81.5
sgRNA knockout: sgHSF2, 1000 nM | 105
sgRNA knockout: sgHSF2, 10000 nM | 122
sgRNA knockout: sgKEAP1, 10 nM | 105
sgRNA knockout: sgKEAP1, 100 nM | 93.4
sgRNA knockout: sgKEAP1, 1000 nM | 113
sgRNA knockout: sgKEAP1, 10000 nM | 101
sgRNA knockout: sgNFE2L2, 10 nM | 105
sgRNA knockout: sgNFE2L2, 100 nM | 73.9
sgRNA knockout: sgNFE2L2, 1000 nM | 98.1
sgRNA knockout: sgNFE2L2, 10000 nM | 108
sgRNA knockout: sgSLC35F2, 10 nM | 89.7
sgRNA knockout: sgSLC35F2, 100 nM | 83.4
sgRNA knockout: sgSLC35F2, 1000 nM | 95.91
sgRNA knockout: sgSLC35F2, 10000 nM | 82.2
sgRNA knockout: sgXBP1, 10 nM | 113
sgRNA knockout: sgXBP1, 100 nM | 85.57
sgRNA knockout: sgXBP1, 1000 nM | 99.5
sgRNA knockout: sgXBP1, 10000 nM | 83.7
